Measured values: the supplement of paper PMC10060354, “Discovery of a small molecule ligand of FRS2 that inhibits invasion and tumor growth” (Cellular Oncology, 2022)
Many values rest on one well or one pass, so single values are uncertain.

Sequences of proteins named here, by UniProt entry; tags and fusion partners are left off. A change or cut given only in a name is not applied to a line headed by its entry.
UniProt Q8N4N8: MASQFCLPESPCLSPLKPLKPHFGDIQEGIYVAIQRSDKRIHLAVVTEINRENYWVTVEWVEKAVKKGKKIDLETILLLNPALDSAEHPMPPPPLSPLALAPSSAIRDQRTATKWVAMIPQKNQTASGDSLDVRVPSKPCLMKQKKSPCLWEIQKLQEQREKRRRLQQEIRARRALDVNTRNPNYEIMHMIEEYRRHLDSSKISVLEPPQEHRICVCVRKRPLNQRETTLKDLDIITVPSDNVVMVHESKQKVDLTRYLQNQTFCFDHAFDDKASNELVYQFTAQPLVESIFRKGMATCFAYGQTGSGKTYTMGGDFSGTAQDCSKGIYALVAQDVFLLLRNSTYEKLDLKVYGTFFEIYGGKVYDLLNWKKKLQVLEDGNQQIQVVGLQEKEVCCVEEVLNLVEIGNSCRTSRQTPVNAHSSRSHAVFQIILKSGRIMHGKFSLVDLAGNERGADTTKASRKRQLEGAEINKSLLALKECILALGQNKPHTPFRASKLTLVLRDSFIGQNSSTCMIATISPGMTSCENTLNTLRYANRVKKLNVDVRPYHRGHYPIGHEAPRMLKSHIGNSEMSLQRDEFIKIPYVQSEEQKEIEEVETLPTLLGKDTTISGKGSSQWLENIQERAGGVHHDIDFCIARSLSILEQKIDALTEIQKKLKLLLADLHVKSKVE
UniProt Q9HAP6: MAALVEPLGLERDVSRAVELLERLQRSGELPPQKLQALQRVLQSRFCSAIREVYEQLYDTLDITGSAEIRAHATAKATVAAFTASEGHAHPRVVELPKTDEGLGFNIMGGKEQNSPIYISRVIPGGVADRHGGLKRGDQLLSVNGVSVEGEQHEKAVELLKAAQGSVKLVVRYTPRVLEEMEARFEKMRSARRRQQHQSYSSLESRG
UniProt Q12834, whole entry: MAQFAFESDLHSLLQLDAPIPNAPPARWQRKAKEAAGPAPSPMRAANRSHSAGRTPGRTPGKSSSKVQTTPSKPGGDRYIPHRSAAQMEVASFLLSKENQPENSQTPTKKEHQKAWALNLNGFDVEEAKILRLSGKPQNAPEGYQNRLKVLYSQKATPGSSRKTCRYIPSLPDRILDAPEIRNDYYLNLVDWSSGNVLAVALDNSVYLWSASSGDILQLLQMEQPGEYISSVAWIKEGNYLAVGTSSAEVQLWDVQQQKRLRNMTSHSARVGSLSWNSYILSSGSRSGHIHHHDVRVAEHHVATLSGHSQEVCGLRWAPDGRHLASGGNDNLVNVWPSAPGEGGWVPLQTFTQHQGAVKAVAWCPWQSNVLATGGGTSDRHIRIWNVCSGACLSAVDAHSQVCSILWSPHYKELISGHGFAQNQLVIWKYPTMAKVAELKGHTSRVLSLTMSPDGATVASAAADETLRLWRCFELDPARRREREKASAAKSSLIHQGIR
UniProt P04406: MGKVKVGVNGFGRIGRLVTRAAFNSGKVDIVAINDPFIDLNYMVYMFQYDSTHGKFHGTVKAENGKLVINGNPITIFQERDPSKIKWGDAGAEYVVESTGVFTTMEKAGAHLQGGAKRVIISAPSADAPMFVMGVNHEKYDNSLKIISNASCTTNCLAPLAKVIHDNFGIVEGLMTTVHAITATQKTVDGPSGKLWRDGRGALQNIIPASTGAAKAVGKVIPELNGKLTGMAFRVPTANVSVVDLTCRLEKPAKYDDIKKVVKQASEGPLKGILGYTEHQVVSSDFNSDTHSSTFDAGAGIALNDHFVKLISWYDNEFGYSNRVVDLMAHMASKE
UniProt Q86WA6: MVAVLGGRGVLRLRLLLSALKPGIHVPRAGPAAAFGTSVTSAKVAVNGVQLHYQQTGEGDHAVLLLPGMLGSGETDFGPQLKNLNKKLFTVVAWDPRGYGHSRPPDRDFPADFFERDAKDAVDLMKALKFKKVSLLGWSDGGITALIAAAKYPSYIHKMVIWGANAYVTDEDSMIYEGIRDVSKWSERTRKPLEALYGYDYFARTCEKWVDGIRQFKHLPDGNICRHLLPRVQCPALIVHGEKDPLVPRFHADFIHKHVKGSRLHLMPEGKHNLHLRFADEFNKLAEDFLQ
UniProt Q9HD34: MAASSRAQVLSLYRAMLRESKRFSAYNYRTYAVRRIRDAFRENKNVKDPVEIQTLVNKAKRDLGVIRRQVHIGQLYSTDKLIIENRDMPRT
UniProt Q96EK5: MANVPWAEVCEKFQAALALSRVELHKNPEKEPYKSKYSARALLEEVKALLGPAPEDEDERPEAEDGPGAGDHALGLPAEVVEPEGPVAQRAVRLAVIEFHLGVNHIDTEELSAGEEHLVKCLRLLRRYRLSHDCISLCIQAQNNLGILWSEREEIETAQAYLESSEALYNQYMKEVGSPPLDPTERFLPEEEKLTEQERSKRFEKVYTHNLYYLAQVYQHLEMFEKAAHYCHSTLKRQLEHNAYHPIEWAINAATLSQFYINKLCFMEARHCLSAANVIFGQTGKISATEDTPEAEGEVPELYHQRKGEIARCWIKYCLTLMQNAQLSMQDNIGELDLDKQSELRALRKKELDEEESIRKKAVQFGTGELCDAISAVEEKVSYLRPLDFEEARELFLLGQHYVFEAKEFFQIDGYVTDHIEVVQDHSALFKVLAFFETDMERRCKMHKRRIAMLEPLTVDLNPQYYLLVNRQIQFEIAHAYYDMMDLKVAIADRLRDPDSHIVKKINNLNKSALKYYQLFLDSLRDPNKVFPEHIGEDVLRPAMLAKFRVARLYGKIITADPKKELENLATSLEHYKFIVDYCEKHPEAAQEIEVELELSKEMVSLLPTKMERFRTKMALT
UniProt P35270: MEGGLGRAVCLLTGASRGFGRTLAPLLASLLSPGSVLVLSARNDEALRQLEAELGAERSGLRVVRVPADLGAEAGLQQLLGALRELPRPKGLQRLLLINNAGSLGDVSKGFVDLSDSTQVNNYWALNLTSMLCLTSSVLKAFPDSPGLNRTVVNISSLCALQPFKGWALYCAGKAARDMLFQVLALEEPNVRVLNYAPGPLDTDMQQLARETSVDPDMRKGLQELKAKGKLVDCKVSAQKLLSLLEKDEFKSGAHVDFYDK
UniProt P27797, whole entry: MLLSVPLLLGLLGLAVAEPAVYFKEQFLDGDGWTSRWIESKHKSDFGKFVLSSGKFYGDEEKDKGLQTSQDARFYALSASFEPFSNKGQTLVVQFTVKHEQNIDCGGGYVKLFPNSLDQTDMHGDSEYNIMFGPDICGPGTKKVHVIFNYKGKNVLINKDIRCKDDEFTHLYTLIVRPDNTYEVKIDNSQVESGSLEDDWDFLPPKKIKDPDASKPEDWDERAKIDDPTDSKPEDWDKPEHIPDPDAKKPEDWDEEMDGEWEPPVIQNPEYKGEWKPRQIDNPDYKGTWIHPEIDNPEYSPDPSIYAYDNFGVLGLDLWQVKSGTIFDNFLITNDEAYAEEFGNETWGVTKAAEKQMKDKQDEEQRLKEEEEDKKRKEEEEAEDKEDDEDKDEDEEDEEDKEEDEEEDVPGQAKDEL
UniProt Q86XK3: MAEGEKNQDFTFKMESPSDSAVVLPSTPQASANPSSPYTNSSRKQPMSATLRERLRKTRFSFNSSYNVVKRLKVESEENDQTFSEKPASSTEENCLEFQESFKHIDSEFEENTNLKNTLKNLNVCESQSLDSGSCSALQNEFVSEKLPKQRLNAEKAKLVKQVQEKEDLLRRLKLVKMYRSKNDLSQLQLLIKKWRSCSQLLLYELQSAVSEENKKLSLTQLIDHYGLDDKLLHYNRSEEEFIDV
UniProt A6NFN3: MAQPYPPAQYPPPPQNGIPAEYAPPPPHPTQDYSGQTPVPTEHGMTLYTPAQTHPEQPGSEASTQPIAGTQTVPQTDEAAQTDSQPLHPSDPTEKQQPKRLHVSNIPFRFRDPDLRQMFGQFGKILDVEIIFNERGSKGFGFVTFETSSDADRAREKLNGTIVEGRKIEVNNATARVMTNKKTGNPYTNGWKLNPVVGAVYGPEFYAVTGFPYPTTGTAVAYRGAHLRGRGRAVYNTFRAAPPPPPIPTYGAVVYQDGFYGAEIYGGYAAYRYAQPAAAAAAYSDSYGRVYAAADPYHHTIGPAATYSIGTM
UniProt A6NEN9: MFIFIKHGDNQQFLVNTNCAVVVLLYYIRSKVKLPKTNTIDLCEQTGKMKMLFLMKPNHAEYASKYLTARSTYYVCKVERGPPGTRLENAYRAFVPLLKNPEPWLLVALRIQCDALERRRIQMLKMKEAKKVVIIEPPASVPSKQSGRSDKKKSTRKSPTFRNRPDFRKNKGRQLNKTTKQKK
UniProt Q8TBA6: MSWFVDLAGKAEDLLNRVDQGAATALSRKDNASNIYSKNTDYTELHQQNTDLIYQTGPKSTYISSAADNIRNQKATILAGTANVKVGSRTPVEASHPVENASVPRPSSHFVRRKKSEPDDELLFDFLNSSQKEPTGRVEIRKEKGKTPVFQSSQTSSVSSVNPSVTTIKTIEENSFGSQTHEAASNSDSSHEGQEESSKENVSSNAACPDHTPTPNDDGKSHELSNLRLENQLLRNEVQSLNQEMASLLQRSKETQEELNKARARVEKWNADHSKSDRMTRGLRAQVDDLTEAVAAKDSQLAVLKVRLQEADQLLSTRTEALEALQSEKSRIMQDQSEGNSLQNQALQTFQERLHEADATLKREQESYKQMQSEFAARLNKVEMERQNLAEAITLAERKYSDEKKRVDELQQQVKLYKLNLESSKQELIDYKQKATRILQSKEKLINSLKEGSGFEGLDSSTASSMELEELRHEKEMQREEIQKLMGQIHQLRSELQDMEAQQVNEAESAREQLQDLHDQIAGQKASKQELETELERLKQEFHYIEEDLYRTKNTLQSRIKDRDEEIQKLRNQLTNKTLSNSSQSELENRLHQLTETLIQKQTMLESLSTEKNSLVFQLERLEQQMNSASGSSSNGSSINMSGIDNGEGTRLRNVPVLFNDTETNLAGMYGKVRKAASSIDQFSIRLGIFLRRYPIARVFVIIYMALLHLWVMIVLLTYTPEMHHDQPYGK
UniProt Q9H4B0: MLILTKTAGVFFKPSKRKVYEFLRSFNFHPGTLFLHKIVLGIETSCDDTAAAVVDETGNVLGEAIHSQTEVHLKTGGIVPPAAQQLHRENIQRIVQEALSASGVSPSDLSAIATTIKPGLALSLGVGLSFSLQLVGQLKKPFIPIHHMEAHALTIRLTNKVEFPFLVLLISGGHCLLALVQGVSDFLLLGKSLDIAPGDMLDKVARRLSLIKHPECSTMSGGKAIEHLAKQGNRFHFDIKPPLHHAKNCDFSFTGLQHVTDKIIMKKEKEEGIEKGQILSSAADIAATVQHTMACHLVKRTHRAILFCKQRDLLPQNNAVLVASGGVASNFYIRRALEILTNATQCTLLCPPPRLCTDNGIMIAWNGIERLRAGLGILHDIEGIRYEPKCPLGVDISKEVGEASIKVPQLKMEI
UniProt P49069: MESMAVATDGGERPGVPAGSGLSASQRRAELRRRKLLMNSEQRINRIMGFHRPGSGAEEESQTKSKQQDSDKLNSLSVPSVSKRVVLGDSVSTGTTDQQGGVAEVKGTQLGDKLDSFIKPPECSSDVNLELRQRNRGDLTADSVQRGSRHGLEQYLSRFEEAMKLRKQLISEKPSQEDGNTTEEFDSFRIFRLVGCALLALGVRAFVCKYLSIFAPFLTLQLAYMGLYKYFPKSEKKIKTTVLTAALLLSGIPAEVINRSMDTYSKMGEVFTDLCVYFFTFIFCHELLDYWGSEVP
UniProt Q00688: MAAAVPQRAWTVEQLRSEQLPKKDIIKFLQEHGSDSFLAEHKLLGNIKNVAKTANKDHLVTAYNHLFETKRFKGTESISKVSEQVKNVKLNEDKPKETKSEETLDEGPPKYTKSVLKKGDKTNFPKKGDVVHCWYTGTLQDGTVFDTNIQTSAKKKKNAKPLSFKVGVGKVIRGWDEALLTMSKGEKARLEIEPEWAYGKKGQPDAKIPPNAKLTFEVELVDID
UniProt O95479: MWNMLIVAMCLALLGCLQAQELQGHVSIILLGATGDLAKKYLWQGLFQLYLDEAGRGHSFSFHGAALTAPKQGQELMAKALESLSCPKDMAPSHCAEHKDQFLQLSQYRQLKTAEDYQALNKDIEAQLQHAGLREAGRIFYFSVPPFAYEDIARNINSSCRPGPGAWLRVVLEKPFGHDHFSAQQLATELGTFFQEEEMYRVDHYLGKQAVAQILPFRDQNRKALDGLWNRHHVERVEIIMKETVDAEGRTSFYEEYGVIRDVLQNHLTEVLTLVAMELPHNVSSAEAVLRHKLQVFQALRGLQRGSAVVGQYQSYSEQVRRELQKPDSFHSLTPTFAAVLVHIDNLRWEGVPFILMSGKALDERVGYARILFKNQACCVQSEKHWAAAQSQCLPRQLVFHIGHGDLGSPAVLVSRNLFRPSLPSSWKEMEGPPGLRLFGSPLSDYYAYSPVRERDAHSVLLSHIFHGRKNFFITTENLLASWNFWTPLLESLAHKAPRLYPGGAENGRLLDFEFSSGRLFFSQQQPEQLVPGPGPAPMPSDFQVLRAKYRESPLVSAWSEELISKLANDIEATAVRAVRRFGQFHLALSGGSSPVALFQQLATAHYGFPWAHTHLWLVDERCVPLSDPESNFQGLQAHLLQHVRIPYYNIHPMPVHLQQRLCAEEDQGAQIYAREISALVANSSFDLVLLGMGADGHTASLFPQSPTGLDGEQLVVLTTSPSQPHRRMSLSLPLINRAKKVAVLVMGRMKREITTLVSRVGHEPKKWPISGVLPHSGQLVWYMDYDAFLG

Compound: [O-][N+](C(C1=C(C(O)=C2)NC(C(C=C3)=CC=C3Cl)C4C1C=CC4)=C2Cl)=O
Assay: melting temperature shift (compound 7 minus DMSO); higher = compound stabilises the protein
Conditions: 10 µM
Procedure: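 Thermal proteome profiling (TMT mass spectrometry) in intact DAOY medulloblastoma cells or DAOY lysates treated with 10 µM compound 7 or DMSO, heated at 10 temperatures from 40.5 to 73.8 °C for 3 min. Melting curves were fitted with the Bioconductor TPP package, and the melting point difference between compound and vehicle is reported per protein (single curve per condition).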

[1] = system: DAOY cell lysate, treatment time: 20 min, 4 °C
[2] = system: intact DAOY cells, treatment time: 90 min, 37 °C

| Target | melting temperature shift [1] [°C] | melting temperature shift [2] [°C] |
| --- | --- | --- |
| PDPR (UniProt Q8NCN5) | 1.16 | 1.42 |
| RPS23 (UniProt P62266) | 0.188 | -0.651 |
| UniProt P84090 | 1.06 |  |
| UniProt Q8N4N8 |  | -1.81 |
| KRI1 (UniProt Q8N9T8) | 0.659 |  |
| MTRR (UniProt Q9UBK8) | -0.16 |  |
| UniProt Q9HAP6 |  | 0.185 |
| ABCB1 (UniProt P08183) | 1.97 |  |
| EXOC5 (UniProt O00471) | -0.347 | -1.2 |
| UniProt P33947 |  | -1.59 |
| DNAJB2 (UniProt P25686) | -1.74 | 0.452 |
| AP1M1 (UniProt Q9BXS5) | -0.744 | 0.78 |
| UniProt Q8N4U5 |  | -0.834 |
| HSP90B1 (UniProt P14625) | 1.13 | 0.309 |
| HMOX1 (UniProt P09601) | 1.31 | 0.546 |
| MRPL20 (UniProt Q9BYC9) | 0.837 | -1.17 |
| PBK (UniProt Q96KB5) | -0.702 | -0.0515 |
| UniProt P26022 | 0.774 | 1 |
| CDC20 (UniProt Q12834) | -0.492 | -0.729 |
| HNRNPH2 (UniProt P55795) | 0.0131 | 2.77 |
| GAPDH (UniProt P04406) | -1.17 | -0.593 |
| UniProt Q9BUA3 | 0.75 |  |
| UniProt P17405 |  | -2.03 |

Single records, as listed above.
PDPR (UniProt Q8NCN5) in the list: melting temperature shift [1] [°C]: 1.16; melting temperature shift [2] [°C]: 1.42
DNAJB2 (UniProt P25686) in the list: melting temperature shift [1] [°C]: -1.74; melting temperature shift [2] [°C]: 0.452
UniProt Q8N4N8 in the list: melting temperature shift [2] [°C]: -1.81
RPS23 (UniProt P62266) in the list: melting temperature shift [1] [°C]: 0.188; melting temperature shift [2] [°C]: -0.651

Next part.

| Target | melting temperature shift [1] [°C] | melting temperature shift [2] [°C] |
| --- | --- | --- |
| NAPA (UniProt P54920) | 0.63 | 0.352 |
| UniProt Q6UXS9 |  | 1.07 |
| BPHL (UniProt Q86WA6) | 0.454 | 0.522 |
| PSMD12 (UniProt O00232) | -0.495 | -1.04 |
| UCHL5 (UniProt Q9Y5K5) | -0.585 | 0.0429 |
| LYRM4 (UniProt Q9HD34) | 0.823 | 0.231 |
| KIF1BP (UniProt Q96EK5) |  | -0.76 |
| GPATCH2 (UniProt Q9NW75) | -3.5 | -0.341 |
| SLC9A3R2 (UniProt Q15599) | 3.99 |  |
| TLE4 (UniProt Q04727) | -0.0238 | -1.97 |
| SPR (UniProt P35270) | -0.273 | -0.439 |
| ITPK1 (UniProt Q13572) | 1.07 | -1.53 |
| UniProt Q8N196 |  | 0.26 |
| UniProt Q99879 |  | -0.488 |
| C12ORF45 (UniProt Q8N5I9) | -0.849 |  |
| GBE1 (UniProt Q04446) | -0.909 | -0.499 |
| UniProt P31146 | -0.657 | 0.169 |
| LRRC59 (UniProt Q96AG4) | 2.23 | -0.312 |
| SMAD4 (UniProt Q13485) | -1.08 | 0.428 |
| NACC1 (UniProt Q96RE7) | -0.763 | -1.27 |
| CALR (UniProt P27797) | 1.16 | 0.757 |
| TOMM70 (UniProt O94826) | 0.761 | -0.331 |
| SFR1 (UniProt Q86XK3) | 0.0934 |  |

| Target | melting temperature shift [1] [°C] | melting temperature shift [2] [°C] |
| --- | --- | --- |
| UniProt A6NFN3 |  | -0.63 |
| NOSIP (UniProt Q9Y314) | 0.123 | -1.07 |
| GDI1 (UniProt P31150) | -0.188 | 0.219 |
| UniProt A6NEN9 | -4.51 |  |
| ATG4B (UniProt Q9Y4P1) | -1.31 | 0.687 |
| CFAP20 (UniProt Q9Y6A4) | -0.317 | 0.738 |
| MRPL23 (UniProt Q16540) | -2.36 | 0.492 |
| TPRKB (UniProt Q9Y3C4) | -0.181 | 0.342 |
| RAB3GAP2 (UniProt Q9H2M9) | -0.459 | -0.401 |
| GFM1 (UniProt Q96RP9) | -0.0164 | -0.064 |
| GOLGA5 (UniProt Q8TBA6) | 0.373 | -0.282 |
| SQLE (UniProt Q14534) | 1.07 | 0.253 |
| HBS1L (UniProt Q9Y450) | -0.101 | -0.377 |
| UACA (UniProt Q9BZF9) | -0.207 | 0.513 |
| ZW10 (UniProt O43264) | -0.362 | -0.547 |
| GATAD2A (UniProt Q86YP4) | -0.255 | 0.0276 |
| AGRN (UniProt O00468) | -0.385 | 0.204 |
| OSGEPL1 (UniProt Q9H4B0) |  | 2.56 |
| SFN (UniProt P31947) | -2.59 |  |
| CDK2 (UniProt P24941) | 0.273 | -0.443 |
| CAMLG (UniProt P49069) | 0.561 | -0.792 |
| NDUFS8 (UniProt O00217) | 0.297 | 0.109 |
| CTBP2 (UniProt P56545) | -1.62 | 0.874 |

| Target | melting temperature shift [1] [°C] | melting temperature shift [2] [°C] |
| --- | --- | --- |
| SMG7 (UniProt Q92540) | 0.698 |  |
| MRPL22 (UniProt Q9NWU5) | 3.07 | -1.13 |
| SQSTM1 (UniProt Q13501) | -0.203 | -0.681 |
| UniProt Q9Y5N5 | -1.24 | 1.21 |
| UniProt O95772 | 0.597 |  |
| GHITM (UniProt Q9H3K2) | 2.6 | 1.15 |
| SYMPK (UniProt Q92797) | -0.457 | -2.29 |
| HRSP12 (UniProt P52758) | -0.688 | 0.704 |
| NT5C2 (UniProt P49902) | -1.29 | 0.0666 |
| LANCL1 (UniProt O43813) | -0.313 | 0.176 |
| PPP1R8 (UniProt Q12972) | 0.0631 | -1.03 |
| TLK1 (UniProt Q9UKI8) |  | -0.642 |
| UniProt Q96LZ7 | 7.31 |  |
| SYNRG (UniProt Q9UMZ2) | -1.04 | 2.11 |
| F11R (UniProt Q9Y624) | 2.91 |  |
| U2SURP (UniProt O15042) | 0.0278 | -0.604 |
| NTPCR (UniProt Q9BSD7) | -0.0202 | -0.762 |
| SLFN5 (UniProt Q08AF3) | -0.113 | -2.1 |
| UniProt Q96CD2 | -1.75 |  |
| FKBP3 (UniProt Q00688) | -0.945 | -1.29 |
| RTF1 (UniProt Q92541) | -1.01 | -0.265 |
| H6PD (UniProt O95479) | 1.6 | 0.92 |
| UniProt Q6ZU15 |  | -0.359 |

| Target | melting temperature shift [1] [°C] | melting temperature shift [2] [°C] |
| --- | --- | --- |
| MRPL57 (UniProt Q9BQC6) |  | -1.9 |
| MRPL16 (UniProt Q9NX20) |  | -2.52 |
| TNFAIP8 (UniProt O95379) | -0.774 | -0.419 |
| OXSM (UniProt Q9NWU1) | 0.306 | -0.255 |
| UniProt Q86VX2 | -1.34 | -0.77 |
| TRNT1 (UniProt Q96Q11) | 0.552 | -1.31 |
| AP3S1 (UniProt Q92572) | -0.938 | -0.733 |
| UniProt P30613 |  | -1.23 |
| PURB (UniProt Q96QR8) | -1.54 | -0.486 |
| INPP1 (UniProt P49441) | 0.432 | -2.67 |
| FAM20B (UniProt O75063) | 0.878 | 1.24 |
| CLINT1 (UniProt Q14677) | -0.685 | -0.424 |
| MARC1 (UniProt Q5VT66) | -3.22 | -4.7 |
| SLC4A2 (UniProt P04920) | 0.63 | -0.651 |
| UniProt Q15052 |  | -2.52 |
| UniProt O95478 | 1.42 |  |
| KIF2C (UniProt Q99661) | -1.4 | -0.00835 |
| UniProt Q9C0A1 |  | -1.46 |
| WRB (UniProt O00258) |  | -0.801 |
| CDAN1 (UniProt Q8IWY9) | -0.306 |  |
| UniProt Q4VXU2 |  | -0.247 |
| PLIN2 (UniProt Q99541) | 1.25 | 1.67 |
